From publication PMC10315715 come the findings set out here.

By UniProt entry, the sequences of proteins in these tests, tags left out.
UniProt P01106: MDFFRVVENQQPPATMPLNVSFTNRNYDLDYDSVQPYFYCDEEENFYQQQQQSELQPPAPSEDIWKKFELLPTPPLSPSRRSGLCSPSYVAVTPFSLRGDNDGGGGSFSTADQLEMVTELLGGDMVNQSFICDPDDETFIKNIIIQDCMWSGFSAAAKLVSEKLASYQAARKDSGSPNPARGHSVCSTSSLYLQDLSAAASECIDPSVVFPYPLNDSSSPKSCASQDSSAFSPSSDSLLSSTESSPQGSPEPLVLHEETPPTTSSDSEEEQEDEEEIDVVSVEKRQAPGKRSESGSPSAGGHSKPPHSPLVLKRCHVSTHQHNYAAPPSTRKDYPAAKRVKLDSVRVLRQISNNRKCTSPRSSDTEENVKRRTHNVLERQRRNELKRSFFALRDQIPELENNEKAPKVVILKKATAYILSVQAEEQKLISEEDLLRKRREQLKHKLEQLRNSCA
UniProt Q9BYV6: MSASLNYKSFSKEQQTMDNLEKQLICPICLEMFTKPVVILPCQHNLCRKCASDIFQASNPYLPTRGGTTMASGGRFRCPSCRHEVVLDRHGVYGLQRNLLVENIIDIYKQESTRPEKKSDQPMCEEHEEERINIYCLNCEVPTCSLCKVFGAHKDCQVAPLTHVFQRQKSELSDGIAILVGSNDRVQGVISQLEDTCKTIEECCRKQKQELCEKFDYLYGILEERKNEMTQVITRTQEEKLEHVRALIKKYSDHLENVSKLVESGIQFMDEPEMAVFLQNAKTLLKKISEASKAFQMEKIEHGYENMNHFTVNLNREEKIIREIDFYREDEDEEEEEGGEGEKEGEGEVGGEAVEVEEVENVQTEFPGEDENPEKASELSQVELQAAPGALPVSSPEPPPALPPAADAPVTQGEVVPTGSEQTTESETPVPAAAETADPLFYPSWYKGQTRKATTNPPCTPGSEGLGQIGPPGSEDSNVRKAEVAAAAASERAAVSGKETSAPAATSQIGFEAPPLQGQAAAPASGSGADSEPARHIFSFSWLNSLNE

Results are given in words; binding and its absence hold for the method and conditions named. Binding seen in cells or lysates may run through a third protein. Some results given as binding are weak or reduced against the parent protein; the word gives no strength.

One experiment deals with His-tagged c-Myc (UniProt P01106). Nature of the experiment: co-IP; HEK-293 T cells transfected with HA-TRIM55 and His-c-Myc; IP with anti-HA or anti-His antibody; western blot. In general terms: In western blotting, separated proteins are transferred to a membrane and probed.
Experiment [1] deals with endogenous c-Myc (human (endogenous in SW620 and SW480)) (UniProt P01106). Nature of the experiment: co-IP; SW620 or SW480 cell lysate; IP with anti-TRIM55 (4°C overnight, protein A/G beads) or anti-c-Myc antibody; western blot.

As for “HA-tagged TRIM55 (Tripartite motif containing 55) (from UniProt Q9BYV6 1-548)”, in the experiment with His-tagged c-Myc, the binding entry is “binds”.
Consider “TRIM55 (Tripartite motif containing 55) in SW620 and SW480 cells (from UniProt Q9BYV6 1-548)”, for which, in experiment [1], the binding result is on record as “binds”.
